{"source": "PubChem BioAssay AID720505 | Drosophila RNAi Screening Center, 2013", "test": "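Fly regulators or components of the CRAC channel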 (primary screen)", "system": "Drosophila S2R+ cells", "reagent": "long dsRNA against Drosophila genes", "treatment": "thapsigargin (2 µM) in calcium-free buffer to empty internal stores, then 2 mM calcium added back", "detection": "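Fluo-4 signal in 384-well plates read on a FLIPR after thapsigargin (2 µM, calcium-free) store depletion and 2 mM calcium add-back; unnormalised mean endpoint per well; screen run twice, selected wells retested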", "reading the numbers": "calcium signal: higher = more calcium entry after store depletion", "hit rule": "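About 1500 genes called as lowering calcium entry, by varying amounts, judged against per-plate control wells with STIM1 as positive and Rho1 as negative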", "calls": "active = called as lowering calcium entry; inactive = not called", "note": "The deposit covers about 20,000 reagents; below is an unselected part of those with a known target gene and a result. Over the whole deposit, about 2,100 (10%) are marked active. 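Raw plate signals without normalisation; calls rest on control-based scores that were not deposited; replicate 2 separates called from uncalled poorly.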 Entries without a mark were called inactive. Names joined by + are all predicted targets of the reagent. Not stated in the record: the amount of reagent, the time to read-out."}
{"Target gene": "CG42512 + CG32573", "amplicon": "DRSC19532", "calcium signal, replicate 1": 111, "calcium signal, replicate 2": 121}
{"Target gene": "CG42512 + CG32573", "amplicon": "DRSC19906", "calcium signal, replicate 1": 105, "calcium signal, replicate 2": 85.1}
{"Target gene": "CG42512 + CG32573", "amplicon": "DRSC22782", "calcium signal, replicate 1": 142, "calcium signal, replicate 2": 153}
{"Target gene": "Gr22e (Gustatory receptor 22e)", "amplicon": "DRSC20912", "calcium signal, replicate 1": 91.9, "calcium signal, replicate 2": 7108}
{"Target gene": "CG7126", "amplicon": "DRSC16201", "calcium signal, replicate 1": 158, "calcium signal, replicate 2": 149}
{"Target gene": "Obp85a (Odorant-binding protein 85a)", "amplicon": "DRSC14362", "calcium signal, replicate 1": 117, "calcium signal, replicate 2": 120}
{"Target gene": "ghi (ghiberti)", "amplicon": "DRSC08985", "calcium signal, replicate 1": 97.8, "calcium signal, replicate 2": 75.7}
{"Target gene": "CG7408", "amplicon": "DRSC10841", "calcium signal, replicate 1": 128, "calcium signal, replicate 2": 218}
{"Target gene": "TwdlV (TweedleV)", "amplicon": "DRSC12226", "calcium signal, replicate 1": 122, "calcium signal, replicate 2": 140}
{"Target gene": "how (held out wings)", "amplicon": "DRSC16966", "calcium signal, replicate 1": 246, "calcium signal, replicate 2": 156}
{"Target gene": "CG30187", "amplicon": "DRSC22461", "calcium signal, replicate 1": 157, "calcium signal, replicate 2": 143}
{"Target gene": "Elp6 (Elongator complex protein 6)", "amplicon": "DRSC16571", "calcium signal, replicate 1": 117, "calcium signal, replicate 2": 92.6}
{"Target gene": "CG9933", "amplicon": "DRSC03276", "calcium signal, replicate 1": 108, "calcium signal, replicate 2": 97.3}
{"Target gene": "CG34002", "amplicon": "DRSC09512", "calcium signal, replicate 1": 6403, "calcium signal, replicate 2": 106}
{"Target gene": "Zpr1", "amplicon": "DRSC18432", "calcium signal, replicate 1": 109, "calcium signal, replicate 2": 109}
{"Target gene": "CG5966", "amplicon": "DRSC18394", "calcium signal, replicate 1": 151, "calcium signal, replicate 2": 125}
{"Target gene": "CG3764", "amplicon": "DRSC10375", "calcium signal, replicate 1": 112, "calcium signal, replicate 2": 88.2}
{"Target gene": "Ir41a (Ionotropic receptor 41a)", "amplicon": "DRSC04730", "calcium signal, replicate 1": 119, "calcium signal, replicate 2": 137}
{"Target gene": "Ir41a (Ionotropic receptor 41a)", "amplicon": "DRSC04875", "calcium signal, replicate 1": 108, "calcium signal, replicate 2": 152}

Laid out differently: entries from further up
Target gene,amplicon,"calcium signal, replicate 1","calcium signal, replicate 2"
TwdlV (TweedleV),DRSC12226,122,140
how (held out wings),DRSC16966,246,156
CG30187,DRSC22461,157,143
